Experimental data: PubChem BioAssay AID504791 (Drosophila RNAi Screening Center, 2011)
In all, the deposit lists about 23,000 reagents; below is a random part of those that have a named target and a result. In the full data, 199 (0.86%) got an active call. 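Plate-scaled ratios behind the calls are not deposited; printed light signals are raw; many rows marked increased or decreased are still called inactive.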 A number with no mark means an inactive call. Reagents against one gene are numbered here. Names joined by + are all predicted targets of the reagent. No sequences are given here. Not stated in the record: the direction of the score.

- Test: 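Genes whose knock-down strengthens or weakens small-RNA reporter silencing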 (primary screen)
- System: Drosophila S2-derived reporter cells
- Reagents: long dsRNA against Drosophila genes, about 150-250 ng dsRNA per well (siRNA assay); about 80-120 ng (miRNA assay)
- Timing: about 5 days (siRNA assay); about 4 days (miRNA assay)
- Challenge: copper sulfate induction of reporters: 25 µM (siRNA assay); 200 mM stated (miRNA assay), 1-2 days before reading
- Read-out: 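Per-well ratio of Renilla over firefly light, expressed relative to that plate's average ratio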
- Rule for the call: 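First-pass picks had plate-scaled ratios over 1.5 for the siRNA assay, over 1.6 for the miRNA assay, or under 0.6; two distinct dsRNAs had to score alike on retest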

| target | dsRNA no. | stable siRNA reporter change | miRNA reporter change | stable assay Renilla, run 1 (luminescence) | stable assay firefly, run 1 (luminescence) |
| --- | --- | --- | --- | --- | --- |
| Skeletor (retired record) (GeneID 3771796) | 1 | – | – | 6930 | 3.82e5 |
| Skeletor (retired record) (GeneID 3771796) | 2 | – | – | 8494 | 4.02e5 |
| CCT7 (GeneID 41054) | 1 | – | – | 7107 | 4.67e5 |
| CG10588 (GeneID 40316) | 1 | – | – | 6599 | 4.25e5 |
| CG6628 (GeneID 39183) | 1 | – | – | 5915 | 3.34e5 |
| Pus7 (GeneID 38969) | 1 | – | – | 6312 | 4.47e5 |
| Isha (GeneID 37411) | 1 | – | – | 3.46e5 | 3.91e5 |
| hoe1 (GeneID 249663) | 1 | – | – | 12875 | 6.13e5 |
| hoe1 (GeneID 249663) | 2 | – | – | 7296 | 4.09e5 |
| hoe1 (GeneID 249663) | 3 | – | reporter ratio lowered past the hit cutoff (active) | 7590 | 3.95e5 |
| CCT8 (GeneID 35882) | 1 | – | – | 8770 | 4.30e5 |
| CG11656 (GeneID 41600) | 1 | – | – | 7299 | 5.12e5 |
| CG14036 (GeneID 33735) | 1 | – | – | 7491 | 4.04e5 |
| CG17658 (GeneID 37793) | 1 | – | – | 5822 | 3.27e5 |
| CG8646 (GeneID 36394) | 1 | – | – | 5704 | 2.73e5 |
| CG6026 (GeneID 42287) | 1 | – | – | 8445 | 4.41e5 |
| Polr3H (GeneID 39310) | 1 | reporter ratio lowered past the hit cutoff | – | 5496 | 5.63e5 |
| SRPK (GeneID 36706) | 1 | – | – | 13039 | 4.81e5 |
| CG31126 (GeneID 326121) | 1 | – | – | 6944 | 3.77e5 |
| caup (GeneID 39440) | 1 | – | – | 5648 | 2.81e5 |
| caup (GeneID 39440) | 2 | – | – | 4891 | 3.50e5 |
| isoQC (GeneID 40270) | 1 | – | – | 7042 | 4.26e5 |
| CG17134 (GeneID 34494) | 1 | – | – | 7923 | 3.51e5 |
| Mlh1 (GeneID 35796) | 1 | – | – | 8498 | 4.34e5 |
| galene (GeneID 38133) | 1 | – | – | 5842 | 3.74e5 |
| galene (GeneID 38133) | 2 | – | – | 5804 | 3.12e5 |
| Prosbeta1 (GeneID 46058) | 1 | – | reporter ratio raised past the hit cutoff (active) | 13307 | 3.32e5 |
| CG3662 (GeneID 33260) | 1 | – | – | 11286 | 6.24e5 |
| CG1888 (GeneID 35979) | 1 | – | – | 6226 | 3.46e5 |
| mbm + CG11555 | 1 | – | – | 7339 | 4.13e5 |
| lqf (GeneID 38846) | 1 | – | – | 8646 | 3.65e5 |
| Gr85a (GeneID 117475) | 1 | – | – | 7254 | 5.29e5 |
| CG15561 (GeneID 43692) | 1 | – | – | 5447 | 3.82e5 |
| Ku80 (GeneID 34930) | 1 | – | – | 8152 | 4.20e5 |
| vret (GeneID 42695) | 1 | – | – | 8743 | 3.59e5 |
| NTPase (GeneID 33495) | 1 | – | – | 9527 | 4.65e5 |
| eIF5 (GeneID 32566) | 1 | reporter ratio lowered past the hit cutoff (active) | – | 4987 | 5.15e5 |
| CG30287 (GeneID 246530) | 1 | – | – | 5966 | 4.27e5 |
| Diap2 (GeneID 36748) | 1 | – | – | 7862 | 3.13e5 |
| dan (GeneID 43023) | 1 | – | – | 11170 | 3.78e5 |
| spab (GeneID 35901) | 1 | – | – | 6874 | 3.51e5 |
| Or65a (GeneID 318011) | 1 | – | – | 6158 | 5.25e5 |
| beg (GeneID 39910) | 1 | – | – | 6854 | 2.39e5 |
| CG14113 (GeneID 50287) | 1 | – | – | 6555 | 3.95e5 |
| Art6 (GeneID 41699) | 1 | – | – | 7983 | 4.83e5 |
| CG4842 (GeneID 39817) | 1 | – | – | 7671 | 5.91e5 |
| CG3009 (GeneID 31402) | 1 | – | – | 9358 | 4.94e5 |
| Gr36b (GeneID 117487) | 1 | – | – | 9222 | 4.70e5 |
| CG14851 (GeneID 41763) | 1 | – | – | 7387 | 3.50e5 |
| CG14851 (GeneID 41763) | 2 | – | – | 8574 | 4.83e5 |
| CG10737 (GeneID 37202) | 1 | – | – | 9477 | 3.53e5 |
| Roc1a (GeneID 31014) | 1 | – | – | 6758 | 6.18e5 |
| Obp50e (GeneID 36600) | 1 | – | – | 6835 | 4.39e5 |
| BomS2 (GeneID 49802) | 1 | – | – | 9361 | 6.09e5 |
| betaNACtes1 (GeneID 32360) | 1 | – | – | 4900 | 5.19e5 |
| Pi3K92E (GeneID 42446) | 1 | – | – | 9122 | 3.71e5 |
| CRIF (GeneID 40395) | 1 | – | – | 8305 | 5.45e5 |
| RhoGAP100F (GeneID 43758) | 1 | – | – | 6926 | 4.74e5 |
| CG8925 (GeneID 41963) | 1 | – | – | 7252 | 3.95e5 |
| CG8925 (GeneID 41963) | 2 | – | – | 6710 | 3.28e5 |
| CG8925 (GeneID 41963) | 3 | – | – | 7616 | 3.52e5 |
| Prosalpha3 (GeneID 37378) | 1 | – | – | 8175 | 3.18e5 |
| Ube4A (GeneID 33932) | 1 | – | reporter ratio lowered past the hit cutoff | 3.79e5 | 6.74e5 |
| Cyp4aa1 (GeneID 36752) | 1 | – | – | 7460 | 4.07e5 |
| smal (GeneID 5740323) | 1 | – | – | 5311 | 4.01e5 |
| smal (GeneID 5740323) | 2 | – | – | 6156 | 2.76e5 |
| smal (GeneID 5740323) | 3 | – | – | 6355 | 3.78e5 |
| smal (GeneID 5740323) | 4 | – | – | 6571 | 3.19e5 |
| smal (GeneID 5740323) | 5 | – | – | 5324 | 5.07e5 |
| CG32206 (GeneID 40105) | 1 | – | – | 5155 | 3.45e5 |
| CG32206 (GeneID 40105) | 2 | – | – | 7188 | 3.55e5 |
| CG32206 (GeneID 40105) | 3 | – | – | 7396 | 3.40e5 |
| CG32206 (GeneID 40105) | 4 | – | – | 6411 | 4.21e5 |
| CG32206 (GeneID 40105) | 5 | – | – | 7335 | 4.64e5 |
| CG4681 (GeneID 37928) | 1 | – | – | 5962 | 3.09e5 |
| CG42304 + Snup | 1 | – | – | 10072 | 4.72e5 |
| CG42304 + Snup | 2 | – | – | 5151 | 3.11e5 |
| CG42304 + Snup | 3 | – | – | 4500 | 4.26e5 |
| l(1)G0020 (GeneID 31811) | 1 | – | – | 5375 | 3.76e5 |
| CG12662 (GeneID 31825) | 1 | – | – | 6459 | 3.55e5 |
| PAN2 (GeneID 35893) | 1 | reporter ratio lowered past the hit cutoff | – | 3399 | 3.32e5 |
| CG5793 (GeneID 42505) | 1 | – | – | 7188 | 4.04e5 |
| Cad74A (GeneID 39936) | 1 | – | – | 8684 | 3.47e5 |
| sisA (GeneID 32068) | 1 | – | – | 5090 | 3.81e5 |
| Cks85A (GeneID 41034) | 1 | – | – | 6056 | 3.81e5 |
| CG10799 (GeneID 36472) | 1 | – | – | 5963 | 2.71e5 |
| Adgf-D (GeneID 41679) | 1 | – | – | 7446 | 3.37e5 |
| CG10470 (GeneID 35174) | 1 | – | – | 6814 | 3.61e5 |
| laza (GeneID 40468) | 1 | – | – | 10528 | 4.24e5 |
| laza (GeneID 40468) | 2 | – | – | 3739 | 3.25e5 |
| CG2291 (GeneID 35804) | 1 | – | – | 8023 | 5.93e5 |
| Teh2 (GeneID 38502) | 1 | – | – | 5212 | 3.35e5 |
| CG31370 (GeneID 43060) | 1 | – | – | 11353 | 6.45e5 |
| Sr-CII (GeneID 44219) | 1 | – | – | 6055 | 3.24e5 |
| CG9886 (GeneID 33431) | 1 | – | – | 11066 | 5.99e5 |
| bero (GeneID 35355) | 1 | – | – | 7170 | 4.34e5 |
| CG13223 (GeneID 36190) | 1 | – | – | 7301 | 3.70e5 |
| CG33109 (GeneID 326258) | 1 | – | – | 7686 | 4.97e5 |
| CG6592 (GeneID 38687) | 1 | – | – | 6352 | 4.07e5 |
| Hem (GeneID 40462) | 1 | – | reporter ratio lowered past the hit cutoff | 7639 | 4.50e5 |
| Mipp1 (GeneID 39841) | 1 | – | – | 10207 | 4.08e5 |
| e(y)3 (GeneID 32965) | 1 | – | – | 6176 | 4.09e5 |
| brun (GeneID 35325) | 1 | – | reporter ratio lowered past the hit cutoff | 20830 | 1.79e6 |
| Gbeta5 (GeneID 31744) | 1 | – | – | 6099 | 3.57e5 |
| sosie (GeneID 42961) | 1 | – | – | 5796 | 3.38e5 |
| sosie (GeneID 42961) | 2 | – | – | 8748 | 4.95e5 |
